Results are given in words; binding and its absence hold for the method and conditions named. In cells and extracts the contact can be indirect. These calls come from enrichment with a bait or labelling near it, and not all partners need be listed. For some of these results: No binding means not detected with the bait. For some of these results: Where a sequence is shown, tags or fusion partners need not be part of it.

Experiment in all cases: affinity purification with mass spectrometry; GFP-pulldown from fungal cell extracts of A. nidulans or A. fumigatus strains, LC-MS, MaxQuant LFQ and Perseus filtering against a GFP control
In test [1] the target is T1, GFP-CandA-N (A. nidulans) (UniProt C8VP82).
T1 sequence: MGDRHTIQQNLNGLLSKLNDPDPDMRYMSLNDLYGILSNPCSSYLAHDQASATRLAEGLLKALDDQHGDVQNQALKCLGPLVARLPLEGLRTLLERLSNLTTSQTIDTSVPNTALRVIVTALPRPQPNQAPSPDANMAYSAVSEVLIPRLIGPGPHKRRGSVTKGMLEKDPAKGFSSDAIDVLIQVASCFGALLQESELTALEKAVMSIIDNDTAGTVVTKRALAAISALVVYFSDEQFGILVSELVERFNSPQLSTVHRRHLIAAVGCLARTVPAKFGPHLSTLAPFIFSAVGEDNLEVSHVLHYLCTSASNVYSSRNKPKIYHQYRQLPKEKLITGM

Test [2] addresses T2, CandA-C-GFP (A. nidulans) (UniProt Q5BAH2).
T2 sequence: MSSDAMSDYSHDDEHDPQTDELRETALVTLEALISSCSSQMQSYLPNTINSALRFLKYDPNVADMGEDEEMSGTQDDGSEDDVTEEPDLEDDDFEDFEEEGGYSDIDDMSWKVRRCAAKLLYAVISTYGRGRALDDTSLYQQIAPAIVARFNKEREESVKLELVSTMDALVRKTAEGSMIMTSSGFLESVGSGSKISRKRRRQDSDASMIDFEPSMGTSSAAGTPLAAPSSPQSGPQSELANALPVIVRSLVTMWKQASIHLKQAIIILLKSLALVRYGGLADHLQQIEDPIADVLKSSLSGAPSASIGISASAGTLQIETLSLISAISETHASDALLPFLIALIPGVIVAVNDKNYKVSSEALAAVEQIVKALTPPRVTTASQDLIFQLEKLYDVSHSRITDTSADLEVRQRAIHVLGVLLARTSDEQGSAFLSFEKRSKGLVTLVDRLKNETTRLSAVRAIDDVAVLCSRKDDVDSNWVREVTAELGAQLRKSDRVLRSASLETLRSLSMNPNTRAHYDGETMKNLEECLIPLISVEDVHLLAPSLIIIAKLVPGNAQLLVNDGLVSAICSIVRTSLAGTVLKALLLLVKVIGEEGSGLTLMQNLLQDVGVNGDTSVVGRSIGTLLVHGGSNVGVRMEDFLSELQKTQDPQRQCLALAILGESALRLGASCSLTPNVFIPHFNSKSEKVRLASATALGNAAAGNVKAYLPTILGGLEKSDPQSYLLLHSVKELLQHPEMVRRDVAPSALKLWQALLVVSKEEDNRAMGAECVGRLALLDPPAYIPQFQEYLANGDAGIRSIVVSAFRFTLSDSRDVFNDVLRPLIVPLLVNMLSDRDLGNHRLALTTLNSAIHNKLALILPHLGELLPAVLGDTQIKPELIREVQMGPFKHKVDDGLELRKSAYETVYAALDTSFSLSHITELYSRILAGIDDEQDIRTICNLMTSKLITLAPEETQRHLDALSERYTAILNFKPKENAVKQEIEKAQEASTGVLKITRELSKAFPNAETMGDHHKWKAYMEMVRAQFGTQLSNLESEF

Test [3] addresses CandA-C1-GFP (A. nidulans).

Turning to CulA (A. nidulans), the binding entry in test [1] and in test [2] was “binds” each time.
In the case of CulC (A. nidulans), the binding entry in test [1] and in test [2] was “no binding” each time.
For the molecule CulD (A. nidulans), the binding entry in test [1] and in test [2] was “no binding” in each case.

B1: CandA-N (protein, UniProt C8VP82 1-339)
chain: T1 sequence
Turning to B1, the binding result in test [3] and in test [2] was “binds” each time.

B2: CandA-C (protein, UniProt Q5BAH2 1-1041)
chain: T2 sequence
As for B2, the binding entry in test [1] and in test [3] was “binds” each time.

Values taken from article PMC6581859.
